Reference: US20100068807A1
No constants are given. Whether binding was seen depends on the method and setting. In cells and extracts the contact can be indirect. Some binding calls cover weakened binding; strength is not graded here. For part of these data: Tags and fused reporters may be left off the sequences shown.

T1: FLAG-mIRF-7 (mouse IRF-7 with N-terminal FLAG tag, from pEF-BOS-FLAG-mIRF-7 or pCSII-EF-FLAG-mIRF7-IRES2-Venus) (mouse) (UniProt P70434)
T1 sequence (looked up): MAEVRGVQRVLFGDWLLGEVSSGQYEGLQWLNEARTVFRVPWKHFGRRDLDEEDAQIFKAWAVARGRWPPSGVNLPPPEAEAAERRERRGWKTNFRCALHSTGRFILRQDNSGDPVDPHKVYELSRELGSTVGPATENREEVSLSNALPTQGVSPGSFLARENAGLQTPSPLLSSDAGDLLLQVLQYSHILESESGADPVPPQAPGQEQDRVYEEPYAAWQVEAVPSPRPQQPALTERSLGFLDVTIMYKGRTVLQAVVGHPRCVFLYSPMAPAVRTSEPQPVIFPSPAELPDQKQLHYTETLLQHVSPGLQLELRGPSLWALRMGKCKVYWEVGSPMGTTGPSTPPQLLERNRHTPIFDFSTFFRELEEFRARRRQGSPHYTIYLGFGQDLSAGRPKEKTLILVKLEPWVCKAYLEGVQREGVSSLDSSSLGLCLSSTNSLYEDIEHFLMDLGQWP

T2: IRF-7 (endogenous, mouse Flt3L-induced bone marrow dendritic cells) (mouse) (UniProt P70434)
T2 sequence (looked up): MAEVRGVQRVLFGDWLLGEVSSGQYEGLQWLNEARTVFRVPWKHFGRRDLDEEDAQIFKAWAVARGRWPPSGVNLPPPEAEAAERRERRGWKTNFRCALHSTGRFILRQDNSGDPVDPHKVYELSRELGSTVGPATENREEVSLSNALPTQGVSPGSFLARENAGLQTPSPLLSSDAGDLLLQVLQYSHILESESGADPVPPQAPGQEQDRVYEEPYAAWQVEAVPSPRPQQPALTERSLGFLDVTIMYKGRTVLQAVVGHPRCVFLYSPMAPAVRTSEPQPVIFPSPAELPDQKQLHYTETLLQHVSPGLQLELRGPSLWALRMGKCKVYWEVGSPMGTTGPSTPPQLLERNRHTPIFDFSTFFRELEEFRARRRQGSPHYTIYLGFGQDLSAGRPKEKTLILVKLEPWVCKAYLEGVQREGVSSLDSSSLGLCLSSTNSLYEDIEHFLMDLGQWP


Key:
[1] = molecular target: T1, FLAG-mIRF-7 (mouse IRF-7 with N-terminal FLAG tag, from pEF-BOS-FLAG-mIRF-7 or pCSII-EF-FLAG-mIRF7-IRES2-Venus) (mouse); experiment: co-immunoprecipitation (anti-Flag M2 / anti-Myc PL14) and Western blot from lysate of transfected 293T cells
[2] = molecular target: T2, IRF-7 (endogenous, mouse Flt3L-induced bone marrow dendritic cells) (mouse); experiment: co-immunoprecipitation (rabbit anti-IRF-7) and Western blot (anti-IKKα M-280) of endogenous proteins from wild-type Flt3L BM DC lysate
[3] = molecular target: T1, FLAG-mIRF-7 (mouse IRF-7 with N-terminal FLAG tag, from pEF-BOS-FLAG-mIRF-7 or pCSII-EF-FLAG-mIRF7-IRES2-Venus) (mouse); experiment: co-immunoprecipitation (anti-FLAG M2) and Western blot (anti-IKKα M-280) from lysate of GM-CSF BM DC expressing FLAG-mIRF7 by lentivirus

Row | Binder | binding [1] | binding [2] | binding [3]
1 | 6myc-mIKKα (wild-type mouse IKKα with 6 myc tags, expressed from pSRα-6myc-mIKKα in 293T cells) (enzyme, UniProt Q60680 1-745, looked up, not shown: small tags and cut ends) MERPPGLRPGAGGPWEMRERLGTGGFGNVSLYQHRELDLKIAIKSCRLELSSKNRERWCHEIQIMKKLDHANVVKACDVPEELNFLINDVPLLAMEYCSGGDLRKLLNKPENCCGLKESQILSLLSDIGSGIRYLHENKIIHRDLKPENIVLQDVGGKTIHKIIDLGYAKDVDQGSLCTSFVGTLQYLAPELFENKPYTATVDYWSFGTMVFECIAGYRPFLHHLQPFTWHEKIKKKDPKCIFACEEMTGEVRFSSHLPQPNSLCSLIVEPMESWLQLMLNWDPQQRGGPIDLTLKQPRCFALMDHILNLKIVHILNMTSAKIISFLLPCDESLHSLQSRIERETGINTGSQELLSETGISLDPRKPASQCVLDGVRGCDSYMVYLFDKSKTVYEGPFASRSLSDCVNYIVQDSKIQLPIIQLRKVWAEAVHYVSGLKEDYSRLFQGQRAAMLSLLRYNANLTKMKNTLISASQQLKAKLEFFRKSIQLDLERYSEQMTYGISSEKMLKAWKEMEEKAIHYSEVGVIGYLEDQIMSLHTEIMELQKSPYGRRQGDLMESLEQRAIDLYKQLKHRPPDHLYSDSTEMVKIIVHTVQSQDRVLKELFGHLSKLLGCKQKIIDLLPKVEVALSNIKEADNTVMFMQGKRQKEIWHLLKIACTQSSARSLVGSSLEGTVTPPVSAWLPPTLADREHPLTCVVTPQDGETLAQMIEENLNCLGHLSTIIREANEDQSSSLMSLDWSWLAE | binds |  | 
2 | IKKα (endogenous, mouse bone marrow dendritic cells) (enzyme, UniProt Q60680 1-745, looked up) MERPPGLRPGAGGPWEMRERLGTGGFGNVSLYQHRELDLKIAIKSCRLELSSKNRERWCHEIQIMKKLDHANVVKACDVPEELNFLINDVPLLAMEYCSGGDLRKLLNKPENCCGLKESQILSLLSDIGSGIRYLHENKIIHRDLKPENIVLQDVGGKTIHKIIDLGYAKDVDQGSLCTSFVGTLQYLAPELFENKPYTATVDYWSFGTMVFECIAGYRPFLHHLQPFTWHEKIKKKDPKCIFACEEMTGEVRFSSHLPQPNSLCSLIVEPMESWLQLMLNWDPQQRGGPIDLTLKQPRCFALMDHILNLKIVHILNMTSAKIISFLLPCDESLHSLQSRIERETGINTGSQELLSETGISLDPRKPASQCVLDGVRGCDSYMVYLFDKSKTVYEGPFASRSLSDCVNYIVQDSKIQLPIIQLRKVWAEAVHYVSGLKEDYSRLFQGQRAAMLSLLRYNANLTKMKNTLISASQQLKAKLEFFRKSIQLDLERYSEQMTYGISSEKMLKAWKEMEEKAIHYSEVGVIGYLEDQIMSLHTEIMELQKSPYGRRQGDLMESLEQRAIDLYKQLKHRPPDHLYSDSTEMVKIIVHTVQSQDRVLKELFGHLSKLLGCKQKIIDLLPKVEVALSNIKEADNTVMFMQGKRQKEIWHLLKIACTQSSARSLVGSSLEGTVTPPVSAWLPPTLADREHPLTCVVTPQDGETLAQMIEENLNCLGHLSTIIREANEDQSSSLMSLDWSWLAE |  | binds | binds
